Reference: PubChem BioAssay AID504764 (Drosophila RNAi Screening Center, 2011)
In all, the deposit lists about 22,000 reagents; this is a random part of those with a known target gene and a result. In the full data, 403 (1.9%) got an active call. 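Unnormalised raw counts per well; ratio z-scores behind the hit calls and whether each hit raises or lowers signal are not deposited.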 Unmarked entries are inactive. Reagents against one gene are numbered here. Names joined by + are all predicted targets of the reagent. Not given: the amount of reagent.

Purpose: 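Genes whose knock-down alters Notch-dependent transcription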 (primary screen)
System: Drosophila Kc167 cells
Reagents: long dsRNA against Drosophila genes
Timing: about 5 days (4 days dsRNA, then 24 h after transfection)
Treatment: transfection of constitutively active membrane-tethered Notch lacking the extracellular domain, read 24 h later
Detection: 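Firefly luciferase from an E(spl)m3 reporter with active Notch, plus control-promoter and uninduced reporter wells for normalisation; unnormalised counts, duplicate wells a and b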
Direction: induced reporter light, run 1, well a and induced reporter light, run 1, well b: higher = more light from the Notch target reporter with active Notch; control promoter light, run 1, well a and control promoter light, run 1, well b: higher = more light from the viral control promoter (cell number, transfection, viability); uninduced reporter light, run 1, well a: higher = more light from the Notch target reporter without active Notch
Call rule: 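Wells with low control signal or poorly matching duplicates excluded; duplicates averaged; per source plate, z beyond ±2 for induced/control log2 ratio or beyond ±1.8 for induced/uninduced marks a hit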
Meaning of the calls: active = modifier hit (raised or lowered Notch signal); inactive = not a hit

| predicted target | reagent | induced reporter light, run 1, well a | induced reporter light, run 1, well b | control promoter light, run 1, well a | control promoter light, run 1, well b | uninduced reporter light, run 1, well a |
| --- | --- | --- | --- | --- | --- | --- |
| Roc1b + Cdc5 | 1 | 1.15e5 | 1.52e5 | 1.75e5 | 3.34e5 | 9980 |
| Klc | 1 | 1.06e5 | 1.07e5 | 98715 | 43965 | 11400 |
| CG42514 | 1 | 1.13e5 | 1.34e5 | 85885 | 1.30e5 | 11560 |
| CG33169 | 1 | 1.26e5 | 1.18e5 | 1.16e5 | 94080 | 5580 |
| CG5390 | 1 | 88970 | 1.26e5 | 59280 | 72930 | 16460 |
| VhaPPA1-2 | 1 | 2.30e5 | 2.23e5 | 2.53e5 | 2.42e5 | 18640 |

Copied from the entries so far (2 entries):
| predicted target | reagent | induced reporter light, run 1, well a | induced reporter light, run 1, well b | control promoter light, run 1, well a | control promoter light, run 1, well b | uninduced reporter light, run 1, well a |
| --- | --- | --- | --- | --- | --- | --- |
| CG33169 | 1 | 1.26e5 | 1.18e5 | 1.16e5 | 94080 | 5580 |
| CG5390 | 1 | 88970 | 1.26e5 | 59280 | 72930 | 16460 |

More entries follow.
| predicted target | reagent | induced reporter light, run 1, well a | induced reporter light, run 1, well b | control promoter light, run 1, well a | control promoter light, run 1, well b | uninduced reporter light, run 1, well a |
| --- | --- | --- | --- | --- | --- | --- |
| CG8526 | 1 | 62155 | 80175 | 86670 | 49210 | 4565 |
| CG33459 | 1 | 95155 | 82495 | 1.29e5 | 1.25e5 | 7275 |
| yip2 | 1 | 1.33e5 | 1.52e5 | 94015 | 1.12e5 | 18955 |
| Usp14 | 1 | 2.16e5 | 2.45e5 | 1.60e5 | 1.89e5 | 14920 |
| Pis | 1 | 40395 | 30970 | 32715 | 30270 | 3705 |
| CG7497 | 1 | 1.42e5 | 1.49e5 | 1.05e5 | 1.28e5 | 8735 |
| CG34347 | 1 | 65265 | 74720 | 1.02e5 | 1.08e5 | 6478 |
| CG34347 | 2 | 45120 | 42410 | 54375 | 59455 | 9675 |
| CG34347 | 3 | 44285 | 42400 | 34170 | 34815 | 3150 |
| CG34347 | 4 | 5735 | 5180 | 9510 | 8965 | 2925 |
| trv | 1 | 1.96e5 | 1.87e5 | 1.60e5 | 1.57e5 | 16220 |
| trv | 2 | 40285 | 52955 | 38935 | 42545 | 6120 |
| trv | 3 | 1.41e5 | 1.58e5 | 1.64e5 | 1.59e5 | 12040 |
| trv | 4 | 1.24e5 | 1.09e5 | 1.97e5 | 1.77e5 | 10600 |
